# Measured values as given in the supplement of paper PMC8728848.
# This is one part of the list.
# B1: PhypaEULS3 (Physcomitrella patens) (protein)
# chain: MLPVRLHCKADPNFNLAAVPGQGPVMVPFSPNDDFQVWYKDVTMSTRVKDETGSSAFSLINKATGQALRHAPEDLAQCLLADYDSNALDQTVLWTMSEDMGQGYCCIRLASQITRNLDVFRGDKKSGGVKEGSPVITFAWKKQDNQIWKMITAILEQKLISEEDLNSAVDHHHHHH
# Experiments:
# Assay in all cases: glycan array binding signal (z-score within array); higher = stronger binding
# Settings in all cases: glycan notation: IUPAC condensed, linker removed
# [1] = molecular target: Neu5Ac(a2-6)Gal(b1-4)GlcNAc(b1-3)Gal(b1-4)GlcNAc(b1-3)Gal(b1-4)GlcNAc(b1-2)Man(a1-3)[Neu5Ac(a2-6)Gal(b1-4)GlcNAc(b1-3)Gal(b1-4)GlcNAc(b1-3)Gal(b1-4)GlcNAc(b1-2)Man(a1-6)]GalNAc
# Procedure, shortened: (§1)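 Glycan array data were curated from 3228 arrays in the Consortium for Functional Glycomics database and kept only where the protein sequence was available. Glycan names were converted to IUPAC-condensed notation, and columns mapping to the same glycan were averaged. The binding signal is a within-array Z-score, averaged across arrays of the same protein sequence at different concentrations or buffers and across linkers. Negative Z-scores can be read as non-binding.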
# [2] = molecular target: Neu5Ac(a2-6)Gal(b1-4)GlcNAc(b1-3)Gal(b1-4)GlcNAc(b1-3)GalNAc
# Procedure, shortened: as §1
# [3] = molecular target: Neu5Ac(a2-6)Gal(b1-4)GlcNAc(b1-3)Gal(b1-4)GlcNAc(b1-3)[Neu5Ac(a2-6)Gal(b1-4)GlcNAc(b1-3)Gal(b1-4)GlcNAc(b1-6)]GalNAc
# Procedure, shortened: as §1
# [4] = molecular target: Neu5Ac(a2-6)Gal(b1-4)GlcNAc(b1-3)Gal(b1-4)GlcNAc(b1-6)[Gal(b1-3)]GalNAc
# Procedure, shortened: as §1
# [5] = molecular target: Neu5Ac(a2-6)Gal(b1-4)GlcNAc(b1-3)Gal(b1-4)[Fuc(a1-3)]GlcNAc(b1-3)Gal(b1-4)[Fuc(a1-3)]GlcNAc
# Procedure, shortened: as §1
# [6] = molecular target: Neu5Ac(a2-6)Gal(b1-4)GlcNAc(b1-3)GalNAc
# Procedure, shortened: as §1
# [7] = molecular target: Neu5Ac(a2-6)Gal(b1-4)GlcNAc(b1-3)[Neu5Ac(a2-6)Gal(b1-4)GlcNAc(b1-6)]GalNAc
# Procedure, shortened: as §1
# [8] = molecular target: Neu5Ac(a2-6)Gal(b1-4)GlcNAc(b1-6)GalNAc
# Procedure, shortened: as §1
# [9] = molecular target: Neu5Ac(a2-6)Gal(b1-4)GlcNAc(b1-6)[Gal(b1-3)GlcNAc(b1-3)]Gal(b1-4)Glc
# Procedure, shortened: as §1
# [10] = molecular target: Neu5Ac(a2-6)Gal(b1-4)GlcNAc(b1-6)[Gal(b1-3)]GalNAc
# Procedure, shortened: as §1
# [11] = molecular target: Neu5Ac(a2-6)Gal(b1-4)GlcNAc6S
# Procedure, shortened: as §1
# Neu5Ac(a2-6)GalNAc = molecular target: Neu5Ac(a2-6)GalNAc
# Procedure, shortened: as §1
# [12] = molecular target: Neu5Ac(a2-6)GalNAc(b1-4)GlcNAc
# Procedure, shortened: as §1
# [13] = molecular target: Neu5Ac(a2-6)GalNAc(b1-4)GlcNAc6S
# Procedure, shortened: as §1
# [14] = molecular target: Neu5Ac(a2-6)GlcNAc(b1-4)GlcNAc
# Procedure, shortened: as §1
# [15] = molecular target: Neu5Ac(a2-6)GlcNAc(b1-4)GlcNAc(b1-4)GlcNAc
# Procedure, shortened: as §1
# Neu5Ac(a2-8)Neu5Ac = molecular target: Neu5Ac(a2-8)Neu5Ac
# Procedure, shortened: as §1
# [16] = molecular target: Neu5Ac(a2-8)Neu5Ac(a2-3)Gal(b1-3)GalNAc(b1-4)[Neu5Ac(a2-3)]Gal(b1-4)Glc
# Procedure, shortened: as §1
# [17] = molecular target: Neu5Ac(a2-8)Neu5Ac(a2-3)Gal(b1-3)GalNAc(b1-4)[Neu5Ac(a2-8)Neu5Ac(a2-3)]Gal(b1-4)Glc
# Procedure, shortened: as §1
# [18] = molecular target: Neu5Ac(a2-8)Neu5Ac(a2-3)Gal(b1-4)Glc
# Procedure, shortened: as §1
# [19] = molecular target: Neu5Ac(a2-8)Neu5Ac(a2-3)Gal(b1-4)GlcNAc
# Procedure, shortened: as §1
# [20] = molecular target: Neu5Ac(a2-8)Neu5Ac(a2-3)[Gal(b1-3)GalNAc(b1-4)]Gal(b1-4)Glc
# Procedure, shortened: as §1
# [21] = molecular target: Neu5Ac(a2-8)Neu5Ac(a2-3)[GalNAc(b1-4)]Gal(b1-4)Glc
# Procedure, shortened: as §1
# [22] = molecular target: Neu5Ac(a2-8)Neu5Ac(a2-8)Neu5Ac
# Procedure, shortened: as §1
# [23] = molecular target: Neu5Ac(a2-8)Neu5Ac(a2-8)Neu5Ac(a2-3)Gal(b1-4)Glc
# Procedure, shortened: as §1
# [24] = molecular target: Neu5Ac(a2-8)Neu5Ac(a2-8)Neu5Ac(a2-3)[Gal(b1-3)GalNAc(b1-4)]Gal(b1-4)Glc
# Procedure, shortened: as §1
# [25] = molecular target: Neu5Ac(a2-8)Neu5Ac(a2-8)Neu5Ac(a2-3)[GalNAc(b1-4)]Gal(b1-4)Glc
# Procedure, shortened: as §1
# [26] = molecular target: Neu5Ac(a2-8)Neu5Ac(a2-8)Neu5Ac(a2-8)Neu5Ac(a2-3)[GalNAc(b1-4)]Gal(b1-4)Glc
# Procedure, shortened: as §1
# [27] = molecular target: Neu5Ac(a2-8)Neu5Gc(a2-3)Gal(b1-4)GlcNAc
# Procedure, shortened: as §1
# [28] = molecular target: Neu5Ac(b2-6)Gal(b1-4)GlcNAc
# Procedure, shortened: as §1
# Neu5Ac(b2-6)GalNAc = molecular target: Neu5Ac(b2-6)GalNAc
# Procedure, shortened: as §1
# [29] = molecular target: Neu5Ac9Ac(a2-3)Gal(b1-3)GlcNAc
# Procedure, shortened: as §1
# [30] = molecular target: Neu5Ac9Ac(a2-3)Gal(b1-4)GlcNAc
# Procedure, shortened: as §1
# [31] = molecular target: Neu5Ac9Ac(a2-6)Gal(b1-4)GlcNAc
# Procedure, shortened: as §1
# [32] = molecular target: Neu5Gc(a2-3)Gal(b1-3)GlcNAc
# Procedure, shortened: as §1
# [33] = molecular target: Neu5Gc(a2-3)Gal(b1-3)[Fuc(a1-4)]GlcNAc
# Procedure, shortened: as §1
# Neu5Gc(a2-3)Gal(b1-4)Glc = molecular target: Neu5Gc(a2-3)Gal(b1-4)Glc
# Procedure, shortened: as §1
# [34] = molecular target: Neu5Gc(a2-3)Gal(b1-4)GlcNAc
# Procedure, shortened: as §1
# [35] = molecular target: Neu5Gc(a2-3)Gal(b1-4)GlcNAc(b1-3)Gal(b1-4)GlcNAc(b1-2)Man(a1-3)[Neu5Gc(a2-3)Gal(b1-4)GlcNAc(b1-3)Gal(b1-4)GlcNAc(b1-2)Man(a1-6)]Man(b1-4)GlcNAc(b1-4)GlcNAc
# Procedure, shortened: as §1
# [36] = molecular target: Neu5Gc(a2-3)Gal(b1-4)[Fuc(a1-3)]GlcNAc
# Procedure, shortened: as §1
# [37] = molecular target: Neu5Gc(a2-6)Gal(b1-4)GlcNAc
# Procedure, shortened: as §1
# Neu5Gc(a2-6)GalNAc = molecular target: Neu5Gc(a2-6)GalNAc
# Procedure, shortened: as §1
# [38] = molecular target: Neu5Gc(a2-8)Neu5Ac(a2-3)Gal(b1-4)GlcNAc
# Procedure, shortened: as §1
# [39] = molecular target: Neu5Gc(a2-8)Neu5Gc(a2-3)Gal(b1-4)GlcNAc
# Procedure, shortened: as §1
# [40] = molecular target: Neu5Gc(a2-8)Neu5Gc(a2-3)Gal(b1-4)GlcNAc(b1-3)Gal(b1-4)GlcNAc
# Procedure, shortened: as §1
binder,measurement,setting,value
B1,glycan array binding signal (z-score),[1],0.347
same,glycan array binding signal (z-score),[2],0.528
same,glycan array binding signal (z-score),[3],0.824
same,glycan array binding signal (z-score),[4],-0.551
same,glycan array binding signal (z-score),[5],-0.366
same,glycan array binding signal (z-score),[6],0.678
same,glycan array binding signal (z-score),[7],-0.629
same,glycan array binding signal (z-score),[8],0.432
same,glycan array binding signal (z-score),[9],0.339
same,glycan array binding signal (z-score),[10],-0.7
same,glycan array binding signal (z-score),[11],2.2
same,glycan array binding signal (z-score),Neu5Ac(a2-6)GalNAc,0.79
same,glycan array binding signal (z-score),[12],0.235
same,glycan array binding signal (z-score),[13],1.7
same,glycan array binding signal (z-score),[14],-0.739
same,glycan array binding signal (z-score),[15],-1.12
same,glycan array binding signal (z-score),Neu5Ac(a2-8)Neu5Ac,-0.256
same,glycan array binding signal (z-score),[16],-0.561
same,glycan array binding signal (z-score),[17],0.367
same,glycan array binding signal (z-score),[18],0.079
same,glycan array binding signal (z-score),[19],1.37
same,glycan array binding signal (z-score),[20],-0.838
same,glycan array binding signal (z-score),[21],-0.005
same,glycan array binding signal (z-score),[22],-0.561
same,glycan array binding signal (z-score),[23],-0.311
same,glycan array binding signal (z-score),[24],-1.74
same,glycan array binding signal (z-score),[25],-1.16
same,glycan array binding signal (z-score),[26],0.99
same,glycan array binding signal (z-score),[27],-1.07
same,glycan array binding signal (z-score),[28],0.796
same,glycan array binding signal (z-score),Neu5Ac(b2-6)GalNAc,-0.204
same,glycan array binding signal (z-score),[29],1.59
same,glycan array binding signal (z-score),[30],0.147
same,glycan array binding signal (z-score),[31],0.138
same,glycan array binding signal (z-score),[32],-0.426
same,glycan array binding signal (z-score),[33],0.692
same,glycan array binding signal (z-score),Neu5Gc(a2-3)Gal(b1-4)Glc,0.964
same,glycan array binding signal (z-score),[34],0.278
same,glycan array binding signal (z-score),[35],0.162
same,glycan array binding signal (z-score),[36],-1.36
same,glycan array binding signal (z-score),[37],-0.106
same,glycan array binding signal (z-score),Neu5Gc(a2-6)GalNAc,2.46
same,glycan array binding signal (z-score),[38],-1.74
same,glycan array binding signal (z-score),[39],-0.693
same,glycan array binding signal (z-score),[40],-0.248

# 3 entries from above, with tabs:
binder	measurement	setting	value
B1	glycan array binding signal (z-score)	[29]	1.59
same	glycan array binding signal (z-score)	[30]	0.147
same	glycan array binding signal (z-score)	[31]	0.138
